# In the supplement of paper PMC10338343:
# ± gives the standard deviation. The list shows a part of the results, in another mix than the full data. Many of these values have a large error. The list shows a part of the results.
# Key:
# [1] = test system: MILI (PIWIL2) piRISC loaded with L1MC piRNA (26 nt); experiment: pre-steady-state target cleavage rate (min^-1); higher = faster piRNA-guided slicing of the target; conditions: guide: L1MC piRNA 5'p-UAACUAAAUACUAUGCAAGCUGUAGG
# In short: (§1)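 Cleave-'n-Seq reactions paired 0.1 nM transcribed, DNA-blocked target RNA library with 1 nM active affinity-purified piRISC holding one synthetic guide, plus or minus 500 nM GTSF1 partner protein, in HEPES–potassium acetate buffer at 33 °C for 0–8 or 0–960 min. After sequencing of uncleaved targets and normalisation to depth and weakly complementary targets, the pre-steady-state cleavage rate was taken from a burst-and-steady-state fit. Three trials were pooled, and k3 was capped at 0.0001 min^-1.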
# [2] = test system: EfPiwi piRISC loaded with L1MC piRNA (26 nt); experiment: pre-steady-state target cleavage rate (min^-1); guide: L1MC piRNA 5'p-UAACUAAAUACUAUGCAAGCUGUAGG; MIWI and MILI are mouse PIWI proteins and EfPiwi is from a freshwater sponge; tags in brackets are library labels; higher = faster piRNA-guided slicing of the target
# In short: as §1
# [3] = auxiliary factor: 500 nM mouse GTSF1
# [4] = auxiliary factor: none (no GTSF1)
# [5] = auxiliary factor: 500 nM Ephydatia muelleri Gtsf1
# [6] = auxiliary factor: none (no Gtsf1)
Sequence,"pre-steady-state target cleavage rate [1, 3]","pre-steady-state target cleavage rate [1, 4]","pre-steady-state target cleavage rate [2, 5]","pre-steady-state target cleavage rate [2, 6]"
UCCUGGAUGAGCUAGCAUACUAUUUAGUUA,0.0848 ± 0.017,0.00398 ± 0.0027,0.00286 ± 0.002,–
UCCUGGAUCAGCAUGCAAAGUAUUUAGUUA,0.098 ± 0.011,0.0074 ± 0.0018,0.0037 ± 0.0031,–
UCCUGCUACAGCUUGCAUUGUUUUUAGUUA,0.0212 ± 0.007,0.00289 ± 0.0028,0.00145 ± 0.0031,–
UCCUCCUACAGCUUGGAUAGUUUUUAGUUA,0.0664 ± 0.0092,0.00384 ± 0.0019,0.0265 ± 0.007,–
UCCUGCAACAGCUUGCAUAGUAUUAAGUUA,0.344 ± 0.039,0.00432 ± 0.0031,0.00881 ± 0.0022,–
UCCUGGAUGAUCUUGCAUAGUAUUUAGUUA,0.145 ± 0.016,0.00813 ± 0.003,0.0779 ± 0.023,–
UCCUGGAUGACCUUGCAUUGUAUUUAGUUA,0.0617 ± 0.0098,0.00446 ± 0.0029,0.000597 ± 0.01,–
UCCUGGAUGAGCUUGCAUAGGAUUUAGUUA,0.00241 ± 0.0044,0.00137 ± 0.0046,0.00113 ± 0.0033,–
UCCUGGUACAGCUUGCAUAGUAUUUAGAUA,0.149 ± 0.033,0.00493 ± 0.0028,–,0.000562 ± 0.02
UCCUGCUUGUGCUUGCAUAGUAUUUAGUUA,0.13 ± 0.017,0.00616 ± 0.0025,0.00618 ± 0.0027,–
UCCUGCUACAGCUUGCAUAGAAUUAAGUUA,0.048 ± 0.012,0.00164 ± 0.0033,–,0.000557 ± 0.011
UCCUCCUACAGGUUGGAUAGUAUUUAGUUA,0.205 ± 0.012,0.00699 ± 0.0018,0.0118 ± 0.0028,–
UCCUCCAACAGCUUGCUUAGUAUUUAGUUA,0.262 ± 0.017,0.0066 ± 0.0021,0.0148 ± 0.0053,–
UCCUGGUUGAGCUUGCAUAGUAUUUAGUUA,0.179 ± 0.017,0.0113 ± 0.0033,–,0.000331 ± 0.061
UCCUGGAUGUGCUUACAUAGUAUUUAGUUA,0.122 ± 0.015,0.0117 ± 0.0028,0.0113 ± 0.0041,–
UCCUGGUACAGCUUGCAUAGUAUUUACAAA,0.0693 ± 0.017,0.00152 ± 0.0036,–,0.000965 ± 0.0091
UCCUGGAUGUCGUUGCAUAGAAUUUAGUAA,0.00115 ± 0.0061,0.000481 ± 0.012,–,0.000251 ± 0.025
UCCUGCUAGAGCUUGCAUAGUAAUUAGUUA,0.19 ± 0.02,0.00448 ± 0.0023,0.00471 ± 0.0019,–
UCCUCCUACAGCUUGGAUAGUAUUUUGUUA,0.164 ± 0.028,0.00424 ± 0.0026,0.00565 ± 0.0022,–
UCCUGGAUGUGCUUGCAUAGUAUAUUAGUUA,0.111 ± 0.016,0.00381 ± 0.0027,–,0.00389 ± 0.0046
UCCUCCUACAGCUUGAAUAGUAUUUAGUUA,0.283 ± 0.015,0.00723 ± 0.002,0.0651 ± 0.017,–
UCCUGGAUCAGCUAGCAUAGUAUUUAGUAA,0.219 ± 0.012,0.00665 ± 0.0023,0.00362 ± 0.0032,–
UCCUGGAACAGCUGUGCAUAGUAUUUAGUUA,0.206 ± 0.015,0.00954 ± 0.0024,0.00999 ± 0.0023,–
UCCUGGUUGUGCUUGCAUAGUAUUUACAAA,0.00786 ± 0.0048,0.00124 ± 0.0058,0.002 ± 0.0029,–
UCCUGCUACAGCUAGCAUAGUAUUAAGUUA,0.3 ± 0.032,0.00271 ± 0.0036,0.00662 ± 0.0026,–
UCCUCCAACAGCUUGCAUAGUAUUUAGAUA,0.192 ± 0.034,0.00442 ± 0.0025,0.0051 ± 0.0023,–

# Looked up one by one from the list above (four):
Sequence,"pre-steady-state target cleavage rate [1, 3]","pre-steady-state target cleavage rate [1, 4]","pre-steady-state target cleavage rate [2, 5]","pre-steady-state target cleavage rate [2, 6]"
UCCUGGAUGUGCUUGCAUAGUAUAUUAGUUA,0.111 ± 0.016,0.00381 ± 0.0027,–,0.00389 ± 0.0046
UCCUGGUACAGCUUGCAUAGUAUUUACAAA,0.0693 ± 0.017,0.00152 ± 0.0036,–,0.000965 ± 0.0091
UCCUGCUACAGCUUGCAUAGAAUUAAGUUA,0.048 ± 0.012,0.00164 ± 0.0033,–,0.000557 ± 0.011
UCCUGGAUGAGCUAGCAUACUAUUUAGUUA,0.0848 ± 0.017,0.00398 ± 0.0027,0.00286 ± 0.002,–

# (listing goes on)

Sequence,"pre-steady-state target cleavage rate [1, 3]","pre-steady-state target cleavage rate [1, 4]","pre-steady-state target cleavage rate [2, 5]","pre-steady-state target cleavage rate [2, 6]"
UCCUGGAUGUCCUUGCAUAGUAAUUAGUUA,0.111 ± 0.019,0.00618 ± 0.0018,0.00215 ± 0.0034,–
UCCUGGAUGUGCUUGCAUACAAUUUAGAAA,0.000815 ± 0.011,0.000546 ± 0.012,0.000236 ± 0.017,–
UCCUGGAUGUCGAUGGUUAGUAUUUAGUUA,0.00091 ± 0.011,0.000288 ± 0.019,0.000347 ± 0.009,–
UCCUGGAACAGCUUGCAUAGUAAUUAGUAA,0.108 ± 0.015,0.0019 ± 0.0034,0.00418 ± 0.0019,–
UCCUCCUACAGAUUGCAUAGUAUUUAGUUA,0.236 ± 0.014,0.00814 ± 0.0018,0.0555 ± 0.014,–
UCCUCCUACAGCUUGCAGAGUAUUUAGUUA,0.218 ± 0.021,0.00823 ± 0.0022,–,0.00115 ± 0.0059
UCCUGGAUGAGCAUGCAUACUAUUUAGUUA,0.0556 ± 0.011,0.00656 ± 0.0024,0.00175 ± 0.0023,–
UCCUCCUACAGCUUGCAUAGUAAUUAGUUA,0.275 ± 0.022,0.00666 ± 0.0023,0.0117 ± 0.0045,–
UCCUGGAACACGAUGCAUAGUAUUUAGUUA,0.14 ± 0.017,0.00495 ± 0.0023,–,0.000403 ± 0.02
UCCUGGUAGAGGUUGCAUAGUAUUUAGUUA,0.185 ± 0.024,0.0103 ± 0.0031,–,0.00158 ± 0.0093
UCCUGCUACAGCUUGCAUAGUAUAUAGUUA,0.227 ± 0.029,0.00382 ± 0.0029,0.00448 ± 0.0019,–
UCCUGGAUGUGCUUGCAUAGUAUCUUAGUUA,0.135 ± 0.019,0.0069 ± 0.0028,0.00353 ± 0.0036,–
UCCUGGAACUGCUUGCAAAGUAUUUAGUUA,0.117 ± 0.01,0.00518 ± 0.0021,0.0228 ± 0.008,–
UCCUGGAUGUCCUUGCAUAGUAUUUAGUAA,0.117 ± 0.019,0.00376 ± 0.0019,0.00321 ± 0.0025,–
UCCUGGAUGAGCUUUGCAUAGUAUUUAGUUA,0.181 ± 0.013,0.0103 ± 0.0021,0.0107 ± 0.0037,–
UCCUGGAUGUGCUUGCAUAGUUUUUAGAUA,0.00296 ± 0.0065,0.00131 ± 0.0053,0.000583 ± 0.0068,–
UCCUGGAUCAGCUUGCUUAGUAUUUUGUUA,0.16 ± 0.015,0.00583 ± 0.0022,0.00309 ± 0.0034,–
UCCUGGUACAGCUAUGCAUAGUAUUUAGUUA,0.259 ± 0.016,0.0112 ± 0.0038,0.0292 ± 0.0094,–
UCCUGGAUCAGCUUGCAUAGUAUUUUCAAA,0.0677 ± 0.013,0.00115 ± 0.0051,0.00307 ± 0.0027,–
UCCUGGAUGAGCUUGCAUAGUAUUUAGUA,0.223 ± 0.025,0.00747 ± 0.0025,0.00405 ± 0.0032,–
UCCUGCUACAGCUUGCAUAGUAUUUACUUA,0.171 ± 0.032,0.00233 ± 0.0038,0.00356 ± 0.0027,–
UCCUGCUACUAGCUUGCAUAGUAUUUAGUUA,0.176 ± 0.022,0.0074 ± 0.0023,0.00699 ± 0.0025,–
UCCUGCUACAGCUUGCAAAGUAUUAAGUUA,0.146 ± 0.019,0.00367 ± 0.0025,0.00445 ± 0.0021,–
UCCUCCUACAGCUUGCUUUGUAUUUAGUUA,0.18 ± 0.017,0.00401 ± 0.0023,0.0093 ± 0.0052,–
UCCUGGUACGGCUUGCAUAGUAUUUAGUUA,0.195 ± 0.03,0.0133 ± 0.0047,0.00921 ± 0.0043,–
